Laboratory results: PubChem BioAssay AID504444 (National Center for Advancing Translational Sciences (NCATS), 2011)
Among all 360,000 compounds or so, about 7,500 (2.1%) were called active. This list was built around the results that the source calls inconclusive (neither active nor inactive); the mix of calls is not that of the screen. Calls come from the whole dose curve; as a rule, active = well fitted inhibition curve with a large enough effect; inconclusive = small, poorly fitted or top-dose-only effect, or effect the other way; inactive = flat fitted curve, though single readings scatter. Potencies beside an inconclusive call are fits to weak or partial responses and may not hold up.

Assay: Nrf2 qHTS screen for inhibitors; note: nearly all actives have a fitted effect of over 60% in size
Details: A549 ARE-Fluc reporter, luciferase luminescence, 18-24 h; series mostly up to 46 µM
Procedure, shortened: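 In this cell-based qHTS, ARE-driven firefly luciferase in A549 cells reports Nrf2 activity; the luminescent signal after BugLite lysis is the measured value, with a prior CellTiter-Fluor read for cell health.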
Potency is the fitted concentration of half-maximal effect.

| Structure (SMILES) | Potency |
| --- | --- |
| Cc1ccc(SCn2nnc3ccccc3c2=O)c(C)c1 | inconclusive: 29.1 µM [activator, single point] |
| CCOc1ccc(NS(=O)(=O)c2ccc(NC(=O)C3CCCO3)cc2)cc1 (stereo not drawn) | inconclusive: 25.9 µM [falling, partial curve, poor fit] |
| Brc1ccc(-c2nnc(-c3ccccc3Br)o2)cc1 | inconclusive: 7.31 µM [activator, partial curve] |
| N#C/C(=C/c1ccc(O)c(O)c1)c1nc2ccccc2[nH]1 | inconclusive: 29.1 µM [activator, single point] |
| C(=C\c1nc(-c2ccncc2)no1)/c1ccccc1 | inconclusive: 25.9 µM [activator, partial curve, poor fit] |
| CCCNC(=O)NC(=O)c1cnccc1C(F)(F)F | inconclusive: 0.0058 µM [activator, full curve, poor fit] |
| Cn1nnnc1Sc1ncnc2scc(-c3cccc(C#N)c3)c12 | active: 16.4 µM |
| O=C(Nc1ccsc1C(=O)O)c1cccc(C(F)(F)F)c1 | inconclusive: 18.4 µM [activator, partial curve] |
| CCc1ccc(NC(=O)C2CCN(S(=O)(=O)c3ccc4c(c3)N(C(C)=O)CCO4)CC2)cc1 | active: 23.1 µM |
| O=S(=O)(NCCc1csc(-c2ccccc2)n1)c1ccc2c(c1)OCCO2 | inconclusive: 29.1 µM [falling, single point] |
| O=C(Cn1c(SCc2ccccc2F)nc2ccncc21)Nc1ccccc1C(F)(F)F | inconclusive: 8.2 µM [activator, partial curve] |
| Cc1ccc(NC2Sc3ccccc3NC2=O)cc1Cl (stereo not drawn) | inconclusive: 20.6 µM [falling, single point] |
| CC(C)=CCOc1c2ccoc2cc2oc(=O)ccc12 | inactive |
| CCOc1cc(N2CCOCC2)c(OCC)cc1NC(=O)CN1C(=O)C2C3C=CC(C3)C2C1=O (stereo not drawn) | inactive |
| Cc1ccc(S(=O)(=O)Nc2cccc(-c3cn4cccc(C)c4n3)c2)c(C)c1 | inconclusive: 25.9 µM [falling, single point] |
| CCN(C(=O)COC(=O)c1ccc(N2C(=O)c3ccccc3C2=O)cc1)C1CCS(=O)(=O)C1 (stereo not drawn) | inactive |
| O=C(c1cccs1)N(C(=O)c1cccs1)c1ccc(Br)cn1 | inconclusive: 1.3 µM [activator, partial curve] |
| NC(N)=NS(=O)(=O)c1ccc(NC(=S)NC(=O)c2ccncc2)cc1 | inconclusive: 1.16 µM [falling, partial curve, poor fit] |
| Cc1ccc(S(=O)(=O)c2nc(S(C)(=O)=O)sc2N2CCCCC2C)cc1 (stereo not drawn) | inconclusive: 16.4 µM [falling, partial curve, poor fit] |
| CCN(CC)C1=CC(=[N+]2CCCC2)CC(C)(C)C1 | active: 8.2 µM |
| Cc1noc(C)c1-c1ccc2ncnc(NCc3cccc(Cl)c3)c2c1 | inconclusive: 4.11 µM [falling, partial curve, poor fit] |
| COc1ccc(C(=O)NC(=O)Nc2cc(C)ccn2)cc1 | active: 7.31 µM |
| CC(=O)Nc1ccc(-c2csc(NC(=O)Nc3ccccc3)n2)cc1 | active: 16.4 µM |

Quoted at random: 2 compounds from above, in no set order.

| Structure (SMILES) | Potency |
| --- | --- |
| COc1ccc(C(=O)NC(=O)Nc2cc(C)ccn2)cc1 | active: 7.31 µM |
| Cc1ccc(S(=O)(=O)Nc2cccc(-c3cn4cccc(C)c4n3)c2)c(C)c1 | inconclusive: 25.9 µM [falling, single point] |

Of the compounds above, 2 contain a Cl atom.

| Structure (SMILES) | Potency |
| --- | --- |
| Cc1ccc(NC2Sc3ccccc3NC2=O)cc1Cl (stereo not drawn) | inconclusive: 20.6 µM [falling, single point] |
| Cc1noc(C)c1-c1ccc2ncnc(NCc3cccc(Cl)c3)c2c1 | inconclusive: 4.11 µM [falling, partial curve, poor fit] |

Following part.

| Structure (SMILES) | Potency |
| --- | --- |
| CCc1nnc(NC(=O)CSc2nc3c(c(=O)n2-c2ccccc2OC)SCC3)s1 | inconclusive: 16.4 µM [falling, partial curve, poor fit] |
| COc1ccc(CCNC(=O)c2cc3c(F)cccc3s2)cc1OC | inconclusive: 29.1 µM [falling, single point] |
| COc1ccc(CC(=O)Nc2sc3c(c2C(=O)Nc2ccccc2)CCCCC3)cc1 | inconclusive: 16.4 µM [falling, single point] |
| COC(=O)c1c(CSc2ccc(C)c(C)c2)noc1C(=O)NCc1ccc(OC)cc1 | inconclusive: 13 µM [falling, partial curve, poor fit] |
| COC(=O)c1nn(-c2ccc3c(c2)CCN3C(C)=O)cc1O | inconclusive: 20.6 µM [falling, single point] |
| Cc1ccc(OCCNC(=O)c2cccc(S(=O)(=O)N3CCN(Cc4ccccc4)CC3)c2)cc1 | active: 11.6 µM |
| Cc1ccc(NC(=O)c2ccc(Cl)c(S(=O)(=O)Nc3c(C)n(C)n(-c4ccccc4)c3=O)c2)cc1Cl | inconclusive: 29.1 µM [falling, single point] |
| O=C(c1cnn(-c2ccc(F)cc2)c1-n1cccc1)N1CCN(c2ccc(F)cc2)CC1 | inconclusive: 10.3 µM [falling, single point] |
| Cc1cc(C(=O)C(C)Sc2cccc[n+]2[O-])c(C)n1-c1ccc(Cl)cc1 (stereo not drawn) | inconclusive: 4.11 µM [activator, partial curve, poor fit] |
| CC(C)c1nc2c([nH]1)c(=O)n(C)c(=O)n2C | inconclusive: 32.6 µM [falling, single point] |
| Cc1cc(C)cc(N2C(=O)CC(Sc3ncn[nH]3)C2=O)c1 (stereo not drawn) | inconclusive: 18.4 µM [activator, partial curve, poor fit] |
| COc1ccc(CNC(=O)CNC(=O)c2sc3ccccc3c2Cl)cc1OC | inconclusive: 20.6 µM [falling, partial curve, poor fit] |
| CC1=C(C(=O)Nc2cccc(Cl)c2C)C2(CCCCCC2)OC1=O | inconclusive: 16.4 µM [activator, partial curve, poor fit] |
| CC(C)c1nc(SCC(=O)N2CCc3ccccc32)n[nH]1 | inconclusive: 20.6 µM [activator, single point] |
| C=CCC1(C#N)C(SC)=NC2=C(C(=O)CC(C)(C)C2)C1c1ccc(Br)cc1 (stereo not drawn) | inconclusive: 29.1 µM [falling, single point] |
| O=[N+]([O-])c1ccc(CN2CCCCCC2)cc1 | inactive |
| Cc1sc(NC(=O)c2cc(-c3ccccc3)nc3ccccc23)c(C(N)=O)c1C | inactive |
| O=C(Nc1ccc(F)cc1)c1csc2c1CCCCC2 | inconclusive: 4.11 µM [activator, full curve] |
| C=CCNc1cnn(-c2ccccc2)c(=O)c1Cl | inconclusive: 29.1 µM [activator, single point] |
| COC(=O)C(C)Oc1ccc(Cc2ncc(C(F)(F)F)cc2Cl)cc1 (stereo not drawn) | inactive |
| O=C(NCCc1ccccc1)c1nc(-c2ccc(Cl)cc2)n2c1CCCCC2 | inconclusive: 29.1 µM [falling, single point] |
| O=C1CC(c2cccc([N+](=O)[O-])c2)c2cc3c(cc2N1)CCC3 (stereo not drawn) | active: 14.6 µM |
| CC(=O)/C(=C/N(C)C)Sc1ccc(C)cc1 | inconclusive: 6.51 µM [activator, single point] |

| Structure (SMILES) | Potency |
| --- | --- |
| Nc1ccc2nc(-c3cccs3)[nH]c2c1 | inconclusive: 18.4 µM [activator, partial curve] |
| O=C(c1ccccc1OCc1ccccc1Br)N1CCN(c2ncccn2)CC1 | inconclusive: 20.6 µM [falling, partial curve, poor fit] |
| Cn1cc(C(=O)Nc2ccc3c(c2)CCC3)cn1 | inconclusive: 2.59 µM [activator, partial curve] |
| O=C(Nc1cccnc1)c1cc(-c2ccc(Br)cc2)on1 | inconclusive: 0.517 µM [activator, partial curve] |
| CN(CC(=O)Nc1cccc(F)c1)C(=O)CCCN1C(=O)c2cccc3cccc(c23)C1=O | inactive |
| Cc1cc(O)c(C(=O)Cc2csc(C)n2)c(O)c1 | inconclusive: 32.6 µM [activator, partial curve, poor fit] |
| O=C(CNC(=S)N(Cc1ccccc1)Cc1ccccc1F)NCc1ccc(Cl)cc1 | active: 25.9 µM |
| O=C(NCc1ccc2c(c1)CCO2)Nc1cccc(C(F)(F)F)c1 | inconclusive: 20.6 µM [falling, partial curve, poor fit] |
| COc1ccc(C2Nc3ccccc3C(=O)N2Cc2ccccc2)cc1COc1ccc(NC(=O)c2ccccc2)cc1 (stereo not drawn) | inactive |
| CC(=O)Nc1ccc(S(=O)(=O)NCc2nc(-c3ccccc3)no2)cc1 | inactive |
| NS(=O)(=O)c1ccc(Nc2nc(-c3cccc([N+](=O)[O-])c3)cs2)cc1 | inconclusive: 0.164 µM [falling, full curve, poor fit] |
| O=C(NCCCNc1ccc(C(F)(F)F)cc1[N+](=O)[O-])c1ccc(Cl)cc1 | inconclusive: 29.1 µM [falling, single point] |
| O=S1(=O)N=C(Oc2cccc(Br)c2)c2ccccc21 | inactive |
| CCc1ccccc1NC(=S)NCC1CCN(c2ccc(OC)cc2)C1 (stereo not drawn) | inconclusive: 9.2 µM [falling, partial curve, poor fit] |
| CCc1ccc(CN2CCCC(C(=O)Nc3ccccc3-c3ccc(OC)cc3)C2)o1 (stereo not drawn) | inactive |
| O=C(c1ccc(CN2CCOCC2)cc1)N1CCC(Cc2ccccc2)CC1 | inactive |
| COc1ccc([N+](=O)[O-])cc1NC(=O)C(C)N(C)Cc1cccc(OC)c1OC (stereo not drawn) | inconclusive: 29.1 µM [falling, single point] |
| Cc1ccc2oc(C(=O)Nc3cccc(Cl)c3)cc(=O)c2c1 | inactive |
| C/C(CC(=O)Nc1ccc2c(c1)OCCO2)=N\NC(=O)c1ccccc1F | inconclusive: 29.1 µM [activator, single point] |
| COc1ccc(-c2nnc(SC(C(=O)c3c[nH]c4ccccc34)c3ccccc3)n2N)cc1OC (stereo not drawn) | inconclusive: 20.6 µM [falling, single point] |
| CCOC(=O)c1nn(-c2ccc(Cl)cc2)c2nnc(Cc3ccc(C)cc3)c(=O)n12 | inconclusive: 32.6 µM [falling, single point] |
| Cc1nc(N2CCN(C(=O)c3ccco3)CC2)c2c3c(sc2n1)CC(C)CC3 (stereo not drawn) | inconclusive: 20.6 µM [falling, single point] |
